Results: patent US8623387B2, “External preparation composition comprising fatty acid-based ionic liquid as active ingredient” (Medrx Co., Ltd., priority 2007, dated 2014)

Assay: IR absorption spectrum, confirmation of salt formation (carboxylic acid vs carboxyl ion absorption)
Parameters: key to Salt formation by IR absorption, equimolar reaction with Octanoic acid: CO2H→CO2^− represents that the IR absorption of the carboxylic acid disappeared and carboxylic acid ion absorption was formed.; CO2H + CO2^− represents that absorptions of carboxylic acid and carboxylic acid ions coexist. In this case, the form of an equilibrium mixture in view of IR spectrum is represented

With `CC(O)CNCC(C)O` (centres unmarked) [Diisopropanolamine] the “Salt formation by IR absorption, equimolar reaction with Capric acid” value (equimolar amine + capric acid, 'Same as the left' = same result as the octanoic acid column) was “Same as”, the “Salt formation by IR absorption, equimolar reaction with Isostearic acid” value (equimolar amine + isostearic acid, 'Same as the left' = same result as the octanoic acid column) was “Same as the” and the “Salt formation by IR absorption, equimolar reaction with Lauric acid” value (equimolar amine + lauric acid, 'Same as the left' = same result as the octanoic acid column) was “Same as”. The “Salt formation by IR absorption, equimolar reaction with Octanoic acid” value (equimolar amine + octanoic acid, 80° C., Nujol, NaCl plates, #1 Salt formation, #2 Equilibrium mixture) was “CO2H→CO2^− #1” and the “position of IR absorption, Characteristic absorption of —COOH of isostearic acid” value (isostearic acid before salt formation, Nujol, rock salt plates) was 1710 cm⁻¹.
